The record followed here is the supplement of paper PMC11732987, “Enantioselective OTUD7B fragment discovery through chemoproteomics screening and high-throughput optimisation” (Communications Chemistry, 2025).

The chains behind the UniProt entries cited, without tags or fusion partners. Where a name states a change or a piece, a line headed by the entry shows the natural chain unless it says otherwise. Residues count along the entry.
UniProt P78527, whole entry, looked up: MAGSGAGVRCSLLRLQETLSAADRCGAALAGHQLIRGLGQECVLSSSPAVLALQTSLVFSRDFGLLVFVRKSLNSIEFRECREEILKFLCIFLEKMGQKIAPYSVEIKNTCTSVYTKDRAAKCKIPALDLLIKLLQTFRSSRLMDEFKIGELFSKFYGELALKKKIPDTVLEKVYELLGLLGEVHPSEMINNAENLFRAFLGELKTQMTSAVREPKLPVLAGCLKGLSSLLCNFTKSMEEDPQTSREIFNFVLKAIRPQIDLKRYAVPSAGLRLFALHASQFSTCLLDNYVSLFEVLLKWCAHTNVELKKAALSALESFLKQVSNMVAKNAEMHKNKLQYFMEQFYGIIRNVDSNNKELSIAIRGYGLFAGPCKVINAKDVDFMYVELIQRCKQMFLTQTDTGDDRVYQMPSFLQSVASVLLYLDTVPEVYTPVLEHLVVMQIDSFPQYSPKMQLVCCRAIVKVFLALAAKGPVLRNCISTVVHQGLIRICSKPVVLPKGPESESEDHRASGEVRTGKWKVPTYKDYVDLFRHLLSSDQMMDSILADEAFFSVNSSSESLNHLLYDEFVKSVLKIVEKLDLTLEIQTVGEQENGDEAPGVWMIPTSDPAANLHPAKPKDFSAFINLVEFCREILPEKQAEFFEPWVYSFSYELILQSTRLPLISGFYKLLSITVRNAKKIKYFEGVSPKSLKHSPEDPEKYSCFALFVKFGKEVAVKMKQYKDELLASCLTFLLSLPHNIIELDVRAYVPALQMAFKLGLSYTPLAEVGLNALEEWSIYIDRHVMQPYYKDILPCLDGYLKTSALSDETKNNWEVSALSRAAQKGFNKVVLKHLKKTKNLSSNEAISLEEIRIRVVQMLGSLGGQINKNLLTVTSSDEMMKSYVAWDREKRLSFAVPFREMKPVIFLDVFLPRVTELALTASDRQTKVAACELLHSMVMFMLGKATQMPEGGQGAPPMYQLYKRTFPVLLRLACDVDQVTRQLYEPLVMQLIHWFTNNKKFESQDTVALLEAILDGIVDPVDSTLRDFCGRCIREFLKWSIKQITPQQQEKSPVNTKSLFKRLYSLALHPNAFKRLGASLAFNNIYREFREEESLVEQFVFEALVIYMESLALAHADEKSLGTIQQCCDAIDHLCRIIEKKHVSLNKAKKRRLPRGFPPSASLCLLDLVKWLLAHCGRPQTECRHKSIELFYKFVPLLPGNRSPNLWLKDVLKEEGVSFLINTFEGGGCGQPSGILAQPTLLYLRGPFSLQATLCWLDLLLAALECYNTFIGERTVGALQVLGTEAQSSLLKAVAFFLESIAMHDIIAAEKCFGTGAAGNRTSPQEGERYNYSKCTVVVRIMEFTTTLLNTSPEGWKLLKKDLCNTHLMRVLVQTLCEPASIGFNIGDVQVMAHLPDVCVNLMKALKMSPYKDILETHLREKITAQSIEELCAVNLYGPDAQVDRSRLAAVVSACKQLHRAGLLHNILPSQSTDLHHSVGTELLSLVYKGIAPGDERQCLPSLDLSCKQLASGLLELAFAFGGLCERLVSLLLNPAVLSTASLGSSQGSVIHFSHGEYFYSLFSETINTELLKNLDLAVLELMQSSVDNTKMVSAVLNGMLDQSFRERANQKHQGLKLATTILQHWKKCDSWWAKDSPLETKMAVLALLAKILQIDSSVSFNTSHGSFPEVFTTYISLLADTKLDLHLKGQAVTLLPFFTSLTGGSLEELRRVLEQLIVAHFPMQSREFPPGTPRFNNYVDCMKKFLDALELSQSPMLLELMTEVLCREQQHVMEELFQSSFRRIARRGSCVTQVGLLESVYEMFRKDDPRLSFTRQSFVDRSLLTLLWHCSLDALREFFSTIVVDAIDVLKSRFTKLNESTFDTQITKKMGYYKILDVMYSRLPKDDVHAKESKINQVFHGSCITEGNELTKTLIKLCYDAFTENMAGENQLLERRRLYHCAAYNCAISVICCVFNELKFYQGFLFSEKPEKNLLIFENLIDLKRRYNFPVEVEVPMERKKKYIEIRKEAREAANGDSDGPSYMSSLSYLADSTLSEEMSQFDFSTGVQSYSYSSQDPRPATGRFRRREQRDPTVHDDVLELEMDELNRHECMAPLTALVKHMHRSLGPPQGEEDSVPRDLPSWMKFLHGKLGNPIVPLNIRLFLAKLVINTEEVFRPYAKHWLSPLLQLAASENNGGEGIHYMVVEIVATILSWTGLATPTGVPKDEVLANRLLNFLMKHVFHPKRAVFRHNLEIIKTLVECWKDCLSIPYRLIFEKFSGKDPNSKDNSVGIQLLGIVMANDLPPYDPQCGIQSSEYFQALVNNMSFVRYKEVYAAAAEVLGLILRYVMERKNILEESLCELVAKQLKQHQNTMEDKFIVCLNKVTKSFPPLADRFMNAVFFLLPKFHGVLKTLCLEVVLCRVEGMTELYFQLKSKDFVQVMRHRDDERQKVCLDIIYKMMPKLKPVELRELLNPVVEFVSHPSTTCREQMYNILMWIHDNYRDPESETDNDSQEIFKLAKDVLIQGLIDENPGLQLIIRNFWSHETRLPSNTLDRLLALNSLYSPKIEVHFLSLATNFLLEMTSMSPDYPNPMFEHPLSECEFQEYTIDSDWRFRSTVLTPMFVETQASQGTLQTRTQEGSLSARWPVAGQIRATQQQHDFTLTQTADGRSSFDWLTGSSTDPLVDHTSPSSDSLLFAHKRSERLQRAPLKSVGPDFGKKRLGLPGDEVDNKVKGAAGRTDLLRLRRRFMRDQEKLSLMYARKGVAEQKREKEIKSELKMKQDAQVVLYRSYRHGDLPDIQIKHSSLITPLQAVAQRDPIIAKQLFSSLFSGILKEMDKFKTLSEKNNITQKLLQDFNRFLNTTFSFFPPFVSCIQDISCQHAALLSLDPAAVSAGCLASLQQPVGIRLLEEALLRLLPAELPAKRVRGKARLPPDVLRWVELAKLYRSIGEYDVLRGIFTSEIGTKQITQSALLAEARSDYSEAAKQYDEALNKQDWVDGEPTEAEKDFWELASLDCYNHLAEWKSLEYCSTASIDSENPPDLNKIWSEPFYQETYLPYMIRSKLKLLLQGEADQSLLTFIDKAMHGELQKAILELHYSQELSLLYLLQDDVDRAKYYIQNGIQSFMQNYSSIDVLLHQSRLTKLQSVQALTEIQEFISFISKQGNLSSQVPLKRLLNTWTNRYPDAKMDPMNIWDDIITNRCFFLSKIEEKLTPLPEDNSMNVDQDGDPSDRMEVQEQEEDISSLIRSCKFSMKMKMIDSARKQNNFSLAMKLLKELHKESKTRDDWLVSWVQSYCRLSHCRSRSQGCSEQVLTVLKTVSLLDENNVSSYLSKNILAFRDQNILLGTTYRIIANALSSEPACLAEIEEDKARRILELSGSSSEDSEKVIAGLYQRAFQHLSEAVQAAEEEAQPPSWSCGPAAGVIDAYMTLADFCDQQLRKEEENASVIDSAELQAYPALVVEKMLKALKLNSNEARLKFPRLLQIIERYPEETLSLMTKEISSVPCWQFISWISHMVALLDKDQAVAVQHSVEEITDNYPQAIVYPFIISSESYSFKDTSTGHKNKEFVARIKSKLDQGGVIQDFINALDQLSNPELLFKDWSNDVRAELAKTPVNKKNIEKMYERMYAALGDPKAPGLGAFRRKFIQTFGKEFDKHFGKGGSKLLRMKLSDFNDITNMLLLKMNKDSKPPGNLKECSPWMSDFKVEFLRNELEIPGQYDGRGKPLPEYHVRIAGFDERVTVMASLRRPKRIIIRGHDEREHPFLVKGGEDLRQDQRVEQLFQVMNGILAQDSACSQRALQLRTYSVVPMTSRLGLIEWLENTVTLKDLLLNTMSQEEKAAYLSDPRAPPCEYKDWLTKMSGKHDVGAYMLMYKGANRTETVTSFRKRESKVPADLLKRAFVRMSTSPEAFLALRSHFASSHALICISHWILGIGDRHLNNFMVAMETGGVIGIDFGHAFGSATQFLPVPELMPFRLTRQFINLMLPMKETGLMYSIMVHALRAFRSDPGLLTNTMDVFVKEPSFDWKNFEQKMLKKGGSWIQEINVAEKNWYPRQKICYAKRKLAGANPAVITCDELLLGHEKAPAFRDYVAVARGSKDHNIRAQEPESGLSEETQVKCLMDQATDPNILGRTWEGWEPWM
UniProt Q9NQ55: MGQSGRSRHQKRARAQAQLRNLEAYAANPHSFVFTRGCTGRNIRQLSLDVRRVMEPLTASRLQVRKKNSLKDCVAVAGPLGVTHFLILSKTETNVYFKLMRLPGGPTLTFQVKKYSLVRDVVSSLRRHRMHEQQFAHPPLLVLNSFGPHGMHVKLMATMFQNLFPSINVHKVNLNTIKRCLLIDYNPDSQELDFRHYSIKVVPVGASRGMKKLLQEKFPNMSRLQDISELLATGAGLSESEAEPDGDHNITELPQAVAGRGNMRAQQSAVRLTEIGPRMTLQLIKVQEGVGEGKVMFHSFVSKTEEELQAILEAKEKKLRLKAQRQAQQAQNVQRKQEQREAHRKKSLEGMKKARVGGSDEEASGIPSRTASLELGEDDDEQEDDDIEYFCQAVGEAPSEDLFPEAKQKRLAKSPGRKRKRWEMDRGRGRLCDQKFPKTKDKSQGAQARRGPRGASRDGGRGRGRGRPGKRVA
UniProt A5A3E0, 916-938: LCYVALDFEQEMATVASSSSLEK
UniProt P24723, whole entry, looked up: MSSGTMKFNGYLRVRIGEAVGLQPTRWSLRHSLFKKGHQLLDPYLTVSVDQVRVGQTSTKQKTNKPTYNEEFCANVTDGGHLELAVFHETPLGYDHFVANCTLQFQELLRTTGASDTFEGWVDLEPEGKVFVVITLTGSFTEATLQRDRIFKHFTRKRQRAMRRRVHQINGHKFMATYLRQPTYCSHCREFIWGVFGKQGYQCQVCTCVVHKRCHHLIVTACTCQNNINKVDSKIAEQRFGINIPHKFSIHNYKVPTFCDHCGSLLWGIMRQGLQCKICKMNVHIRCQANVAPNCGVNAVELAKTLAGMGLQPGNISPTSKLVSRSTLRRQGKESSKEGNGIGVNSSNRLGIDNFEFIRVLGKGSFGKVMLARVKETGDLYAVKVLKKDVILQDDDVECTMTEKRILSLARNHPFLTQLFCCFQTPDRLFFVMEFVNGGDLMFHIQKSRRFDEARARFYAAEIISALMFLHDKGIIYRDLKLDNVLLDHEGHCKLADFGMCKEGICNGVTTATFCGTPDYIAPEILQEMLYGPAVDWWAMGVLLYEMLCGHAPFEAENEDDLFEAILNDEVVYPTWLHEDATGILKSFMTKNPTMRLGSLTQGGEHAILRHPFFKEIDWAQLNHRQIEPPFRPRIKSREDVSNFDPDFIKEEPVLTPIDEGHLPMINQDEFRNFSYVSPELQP
UniProt Q99575: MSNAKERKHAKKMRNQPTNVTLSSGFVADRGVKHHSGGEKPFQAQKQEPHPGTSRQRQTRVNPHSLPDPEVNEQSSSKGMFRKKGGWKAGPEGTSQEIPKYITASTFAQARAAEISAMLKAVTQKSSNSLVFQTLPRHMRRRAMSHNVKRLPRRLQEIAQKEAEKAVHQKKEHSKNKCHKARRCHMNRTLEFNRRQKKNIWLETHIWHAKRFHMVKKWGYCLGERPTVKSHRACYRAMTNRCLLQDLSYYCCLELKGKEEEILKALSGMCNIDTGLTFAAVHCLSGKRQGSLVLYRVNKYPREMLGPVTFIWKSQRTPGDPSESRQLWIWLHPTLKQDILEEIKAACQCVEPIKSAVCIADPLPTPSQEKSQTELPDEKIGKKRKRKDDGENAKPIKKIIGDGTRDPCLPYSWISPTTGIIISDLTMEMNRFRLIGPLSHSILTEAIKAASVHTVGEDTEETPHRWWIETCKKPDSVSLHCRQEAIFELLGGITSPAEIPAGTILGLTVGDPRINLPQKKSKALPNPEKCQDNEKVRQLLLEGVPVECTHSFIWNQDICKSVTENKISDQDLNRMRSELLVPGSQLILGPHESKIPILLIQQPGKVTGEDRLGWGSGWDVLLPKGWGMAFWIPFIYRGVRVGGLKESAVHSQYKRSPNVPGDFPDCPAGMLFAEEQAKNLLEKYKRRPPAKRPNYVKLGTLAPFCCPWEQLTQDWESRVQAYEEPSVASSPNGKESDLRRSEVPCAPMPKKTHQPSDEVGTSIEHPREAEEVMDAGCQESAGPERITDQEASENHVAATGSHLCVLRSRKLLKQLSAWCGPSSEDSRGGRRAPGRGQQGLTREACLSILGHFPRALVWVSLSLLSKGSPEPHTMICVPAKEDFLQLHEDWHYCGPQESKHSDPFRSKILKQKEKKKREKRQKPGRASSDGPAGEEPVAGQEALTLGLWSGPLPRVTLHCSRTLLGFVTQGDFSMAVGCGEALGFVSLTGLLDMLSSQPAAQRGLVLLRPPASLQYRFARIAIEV

This is one part of the list. The data scatter; read single values as rough.

Compound in the first assay: ClCC(=O)N[C@@H]1CCCc2ccccc12
Briefly: log2 mean competition ratio of IA-DTB cysteine labelling (DMSO/compound) (log2 ratio); higher = stronger cysteine engagement by compound. The note with it: 50 µM; treatment time: 4 h; cell line lysate: HEK293T. The method, then:
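IA-DTB competitive cysteine chemoproteomics in HEK293T RIPA lysate. Lysates were treated with compound 29 or 30 at 50 or 200 µM for 4 h, then IA-DTB (500 µM, 1 h), trypsin-digested, NeutrAvidin-enriched and analysed by diaPASEF. Competition ratio = intensity DMSO / intensity compound (n=4 treated, n=64 DMSO); binding: mean log2 CR ≥ 1 and p ≤ 0.05 plus QC filters. Target is the cysteine site.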
For PRKDC C373 (UniProt P78527), the “log2 mean competition ratio” value stood at 0.214.

As to POLR3A C934 (UniProt O14802), the “log2 mean competition ratio” value was -0.134.

In the case of POLR3B C815 (UniProt Q9NW08), the “log2 mean competition ratio” value was found to be 0.186.

In the case of PRPF8 C1228 (UniProt Q6P2Q9), the “log2 mean competition ratio” value is -0.0492.

Consider PPAN C180 (UniProt Q9NQ55), for which the “log2 mean competition ratio” value amounted to 0.0954.

With PPP5C C11 (UniProt P53041), the “log2 mean competition ratio” value was 0.0628.

As to PPP6R1 C437 (UniProt Q9UPN7), the “log2 mean competition ratio” value worked out at 0.101.

For PPP2R1A C329 (UniProt P30153), the “log2 mean competition ratio” value was found to be 0.0806.

As to POTEF C917 (UniProt A5A3E0), the “log2 mean competition ratio” value turned out to be 0.198.

On to PRKCH C501 (UniProt P24723), for which the “log2 mean competition ratio” value is -0.0884.

For PRMT1 C272 (UniProt Q99873), the “log2 mean competition ratio” value came to 0.0648.

As to PPIP5K2 C900, the “log2 mean competition ratio” value is -0.12.

Regarding PRR14L C1224 (UniProt Q5THK1), the “log2 mean competition ratio” value came out at 0.0632.

Regarding PPP6R3 C172 (UniProt Q5H9R7), the “log2 mean competition ratio” value is -0.165.

As to PPP1R18 C276 (UniProt Q6NYC8), the “log2 mean competition ratio” value was -0.252.

Turning to POP1 C358 (UniProt Q99575), the “log2 mean competition ratio” value stood at 0.0395.

For PRKDC C4106 (UniProt P78527), the “log2 mean competition ratio” value came out at 0.359.

Take PRDM2 C875 (UniProt Q13029): the “log2 mean competition ratio” value was -0.0265.

As to PRKCG C502 (UniProt P05129), the “log2 mean competition ratio” value is -0.0411.

Regarding POT1 C329 (UniProt Q9NUX5), the “log2 mean competition ratio” value turned out to be 0.604.

The assay is the same for the next values; noted with them: 200 µM; treatment time: 4 h; cell line lysate: HEK293T.
Turning to PRKDC C373 (UniProt P78527), the “log2 mean competition ratio” value is -0.235.

On to POLR3A C934 (UniProt O14802), for which the “log2 mean competition ratio” value is -0.217.

Turning to POLR3B C815 (UniProt Q9NW08), the “log2 mean competition ratio” value is 0.0525.

Regarding PRPF8 C1228 (UniProt Q6P2Q9), the “log2 mean competition ratio” value was determined as 0.11.

Turning to PPAN C180 (UniProt Q9NQ55), the “log2 mean competition ratio” value was determined as 0.817.

Consider PPP5C C11 (UniProt P53041), for which the “log2 mean competition ratio” value came out at 0.0328.

For PPP6R1 C437 (UniProt Q9UPN7), the “log2 mean competition ratio” value was 0.227.

Turning to PPP2R1A C329 (UniProt P30153), the “log2 mean competition ratio” value is -0.488.

As to POTEF C917 (UniProt A5A3E0), the “log2 mean competition ratio” value amounted to 0.0538.

Take PRKCH C501 (UniProt P24723): the “log2 mean competition ratio” value was 0.216.

In the case of PRMT1 C272 (UniProt Q99873), the “log2 mean competition ratio” value is -0.432.

For PPIP5K2 C900, the “log2 mean competition ratio” value is -0.107.

For the target PRR14L C1224 (UniProt Q5THK1), the “log2 mean competition ratio” value is -0.0216.

In the case of PPP6R3 C172 (UniProt Q5H9R7), the “log2 mean competition ratio” value is -0.448.

For PPP1R18 C276 (UniProt Q6NYC8), the “log2 mean competition ratio” value is -0.0638.

Consider POP1 C358 (UniProt Q99575), for which the “log2 mean competition ratio” value came to 0.0745.

Consider PRKDC C4106 (UniProt P78527), for which the “log2 mean competition ratio” value came out at 0.155.

Take PRDM2 C875 (UniProt Q13029): the “log2 mean competition ratio” value amounted to 0.0162.

As for PRKCG C502 (UniProt P05129), the “log2 mean competition ratio” value is -0.0451.

Regarding POT1 C329 (UniProt Q9NUX5), the “log2 mean competition ratio” value worked out at 0.165.
